Record: PubChem BioAssay AID1259308 (NCATS, 2017)
Assay: 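Genes whose loss raises luciferase production in HEK293 cells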 (primary screen). Cell system: human HEK293 embryonic kidney cells stably expressing firefly luciferase (HEK-CMV-Luc2-Hygro). Reagents: single siRNA against human genes, 0.8 pmol siRNA per well. Duration: 72 h. Detection: 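Reporter luminescence and viable-cell signal on separate replicate plates, given as percent of non-targeting control and median/MAD z-scores, plus per-cell luciferase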. Direction: total luciferase, z-score and total luciferase, % of control: higher = more reporter protein produced; luciferase per cell, z-score: higher = more reporter output per viable cell; viable cells, % of control: higher = more viable cells. Hit rule: 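Active when the median/MAD z-score for overall luciferase is greater than 3; a gene was taken forward for validation with new siRNAs if at least two of its three siRNAs passed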. Calls: active = raised luciferase; inactive = no rise.
This is a random part of about 59,000 reagents tested. About 1,510 of them (2.6%) count as active. 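Calls use total luciferase alone and ignore viability, so some active siRNAs may act by altering cell number.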 Entries without a mark were called inactive. Reagents against one gene are numbered here.

no.	Gene	siRNA no.	total luciferase, z-score	total luciferase, % of control	luciferase per cell, z-score	viable cells, % of control
1	CROT (GeneID 54677)	1	-1.31	55.8	-2.31	115
2	CROT (GeneID 54677)	2	0.157	85	-0.497	108
3	CROT (GeneID 54677)	3	-0.263	76.7	-0.303	92.8
4	TMEM183A (GeneID 92703)	1	-1.57	50.8	-1.77	90.5
5	TMEM183A (GeneID 92703)	2	1.1	104	0.695	96.5
6	TMEM183A (GeneID 92703)	3	-0.421	73.5	-0.366	90.5
7	PRPH (GeneID 5630)	1	-0.0106	81.7	-0.0169	91.7
8	PRPH (GeneID 5630)	2	-0.615	69.6	-0.447	87.5
9	PRPH (GeneID 5630)	3	0.731	96.4	1.43	74

3 entries from above, ordered by “luciferase per cell, z-score”, low to high:
Gene	siRNA no.	total luciferase, z-score	total luciferase, % of control	luciferase per cell, z-score	viable cells, % of control
TMEM183A (GeneID 92703)	3	-0.421	73.5	-0.366	90.5
PRPH (GeneID 5630)	1	-0.0106	81.7	-0.0169	91.7
TMEM183A (GeneID 92703)	2	1.1	104	0.695	96.5

The listing continues.
no.	Gene	siRNA no.	total luciferase, z-score	total luciferase, % of control	luciferase per cell, z-score	viable cells, % of control
10	FAM229B (GeneID 619208)	1	-0.00909	81.7	0.129	88.3
11	FAM229B (GeneID 619208)	2	-1.06	60.9	-0.292	73.5
12	FAM229B (GeneID 619208)	3	-0.282	76.3	0.609	72.6
13	RRP7A (GeneID 27341)	1	0.222	86.3	0.48	85
14	RRP7A (GeneID 27341)	2	0.224	86.3	0.971	74.7
15	RRP7A (GeneID 27341)	3	0.458	91	0.681	85
16	HYAL3 (GeneID 8372)	1	1.79	117	0.52	114
17	HYAL3 (GeneID 8372)	2	-1.92	43.8	-2.9	105
18	HYAL3 (GeneID 8372)	3	-1.42	53.6	-1.92	99.2
19	GPKOW (GeneID 27238)	1	-0.698	68	-0.752	92.6
20	GPKOW (GeneID 27238)	2	1.06	103	1.57	76.1
21	GPKOW (GeneID 27238)	3	-0.431	73.3	-0.675	97.9
22	MFSD2B (GeneID 388931)	1	-0.293	76.1	1.12	63.3
23	MFSD2B (GeneID 388931)	2	-1.5	52	-1.27	81.2
24	MFSD2B (GeneID 388931)	3	0.229	86.4	-0.724	117
